The supplement of paper PMC11006884
What follows is the remainder of the data, with few or none of the targets with a hit. Single values of this set are uncertain. The list shows a part of the results, in another mix than the full data.

Protein sequences, listed by entry. Tags and fused reporters are not part of them. Lines headed by an entry give the natural chain unless they say otherwise; changes in a name come on top.
UniProt P06748, whole entry, looked up: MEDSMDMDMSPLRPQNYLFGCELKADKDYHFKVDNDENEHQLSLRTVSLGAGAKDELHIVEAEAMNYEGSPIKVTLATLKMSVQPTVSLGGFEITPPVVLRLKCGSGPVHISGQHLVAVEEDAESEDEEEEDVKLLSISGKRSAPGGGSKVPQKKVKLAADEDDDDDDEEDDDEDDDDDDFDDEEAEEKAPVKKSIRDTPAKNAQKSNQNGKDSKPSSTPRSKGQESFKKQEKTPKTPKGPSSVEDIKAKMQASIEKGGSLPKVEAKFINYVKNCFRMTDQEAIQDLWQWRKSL
UniProt O95602, whole entry, looked up: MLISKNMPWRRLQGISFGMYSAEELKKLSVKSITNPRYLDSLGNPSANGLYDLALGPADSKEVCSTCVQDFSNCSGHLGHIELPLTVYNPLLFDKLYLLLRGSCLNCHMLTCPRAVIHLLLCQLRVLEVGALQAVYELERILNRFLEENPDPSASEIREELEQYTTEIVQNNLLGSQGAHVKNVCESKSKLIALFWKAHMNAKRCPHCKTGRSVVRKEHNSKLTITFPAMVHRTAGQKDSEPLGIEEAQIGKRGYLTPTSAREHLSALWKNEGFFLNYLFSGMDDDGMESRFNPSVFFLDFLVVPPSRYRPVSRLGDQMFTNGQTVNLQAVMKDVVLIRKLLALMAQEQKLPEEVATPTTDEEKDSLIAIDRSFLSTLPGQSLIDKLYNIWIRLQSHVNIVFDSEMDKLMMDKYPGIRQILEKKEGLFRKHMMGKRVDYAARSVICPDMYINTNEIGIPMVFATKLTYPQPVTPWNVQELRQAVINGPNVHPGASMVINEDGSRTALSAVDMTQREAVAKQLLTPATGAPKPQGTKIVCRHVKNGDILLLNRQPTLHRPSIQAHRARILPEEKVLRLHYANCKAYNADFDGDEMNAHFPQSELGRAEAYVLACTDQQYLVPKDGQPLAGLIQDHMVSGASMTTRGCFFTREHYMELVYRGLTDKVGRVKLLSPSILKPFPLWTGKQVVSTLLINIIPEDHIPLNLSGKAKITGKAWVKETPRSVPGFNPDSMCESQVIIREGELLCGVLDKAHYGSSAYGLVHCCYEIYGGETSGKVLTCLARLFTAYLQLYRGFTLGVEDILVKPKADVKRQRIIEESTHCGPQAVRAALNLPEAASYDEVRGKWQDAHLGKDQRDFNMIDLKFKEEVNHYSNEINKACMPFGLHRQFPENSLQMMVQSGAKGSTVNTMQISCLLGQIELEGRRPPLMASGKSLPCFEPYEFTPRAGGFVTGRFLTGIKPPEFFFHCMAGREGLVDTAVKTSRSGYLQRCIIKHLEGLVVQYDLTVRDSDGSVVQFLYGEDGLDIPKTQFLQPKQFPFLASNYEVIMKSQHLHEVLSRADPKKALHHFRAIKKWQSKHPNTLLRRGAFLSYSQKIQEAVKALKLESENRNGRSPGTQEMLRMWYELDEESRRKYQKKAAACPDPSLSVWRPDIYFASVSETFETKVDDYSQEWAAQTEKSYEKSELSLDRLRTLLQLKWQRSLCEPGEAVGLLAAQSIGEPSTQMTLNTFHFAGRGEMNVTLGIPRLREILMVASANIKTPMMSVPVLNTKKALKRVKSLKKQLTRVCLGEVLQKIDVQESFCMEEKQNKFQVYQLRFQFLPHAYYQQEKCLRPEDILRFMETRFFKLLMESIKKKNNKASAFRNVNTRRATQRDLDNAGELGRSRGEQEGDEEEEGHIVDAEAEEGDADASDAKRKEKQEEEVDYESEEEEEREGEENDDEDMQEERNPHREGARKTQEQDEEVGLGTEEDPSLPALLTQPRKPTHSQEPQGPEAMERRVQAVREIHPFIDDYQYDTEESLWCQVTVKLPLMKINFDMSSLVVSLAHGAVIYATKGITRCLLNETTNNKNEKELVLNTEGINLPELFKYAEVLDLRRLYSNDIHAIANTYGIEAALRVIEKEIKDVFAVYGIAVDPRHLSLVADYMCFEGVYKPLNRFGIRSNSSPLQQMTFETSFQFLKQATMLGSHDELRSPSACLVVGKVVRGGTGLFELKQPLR
UniProt P07203, whole entry, looked up: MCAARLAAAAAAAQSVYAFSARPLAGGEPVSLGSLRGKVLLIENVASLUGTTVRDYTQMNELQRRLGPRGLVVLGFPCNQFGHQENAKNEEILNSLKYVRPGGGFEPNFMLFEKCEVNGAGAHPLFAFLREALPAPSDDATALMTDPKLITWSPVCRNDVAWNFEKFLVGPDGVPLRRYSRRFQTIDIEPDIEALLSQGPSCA
UniProt O94925: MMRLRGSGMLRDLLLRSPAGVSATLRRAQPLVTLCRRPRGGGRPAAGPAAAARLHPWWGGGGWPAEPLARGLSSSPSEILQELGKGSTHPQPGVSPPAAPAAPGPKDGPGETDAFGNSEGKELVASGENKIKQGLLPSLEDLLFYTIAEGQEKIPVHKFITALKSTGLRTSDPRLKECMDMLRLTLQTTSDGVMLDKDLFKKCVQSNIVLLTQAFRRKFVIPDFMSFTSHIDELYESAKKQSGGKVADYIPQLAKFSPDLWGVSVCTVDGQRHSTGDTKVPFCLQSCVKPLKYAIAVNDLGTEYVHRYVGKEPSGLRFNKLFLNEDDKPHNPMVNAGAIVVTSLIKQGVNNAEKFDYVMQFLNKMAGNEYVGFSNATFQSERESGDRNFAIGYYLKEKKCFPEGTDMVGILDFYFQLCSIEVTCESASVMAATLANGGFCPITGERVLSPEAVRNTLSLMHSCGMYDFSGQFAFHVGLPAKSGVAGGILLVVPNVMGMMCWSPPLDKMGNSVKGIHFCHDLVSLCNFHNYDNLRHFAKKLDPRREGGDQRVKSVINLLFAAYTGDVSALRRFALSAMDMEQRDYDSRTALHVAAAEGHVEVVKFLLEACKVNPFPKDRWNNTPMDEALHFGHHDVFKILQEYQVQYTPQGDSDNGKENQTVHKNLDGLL
UniProt O95782: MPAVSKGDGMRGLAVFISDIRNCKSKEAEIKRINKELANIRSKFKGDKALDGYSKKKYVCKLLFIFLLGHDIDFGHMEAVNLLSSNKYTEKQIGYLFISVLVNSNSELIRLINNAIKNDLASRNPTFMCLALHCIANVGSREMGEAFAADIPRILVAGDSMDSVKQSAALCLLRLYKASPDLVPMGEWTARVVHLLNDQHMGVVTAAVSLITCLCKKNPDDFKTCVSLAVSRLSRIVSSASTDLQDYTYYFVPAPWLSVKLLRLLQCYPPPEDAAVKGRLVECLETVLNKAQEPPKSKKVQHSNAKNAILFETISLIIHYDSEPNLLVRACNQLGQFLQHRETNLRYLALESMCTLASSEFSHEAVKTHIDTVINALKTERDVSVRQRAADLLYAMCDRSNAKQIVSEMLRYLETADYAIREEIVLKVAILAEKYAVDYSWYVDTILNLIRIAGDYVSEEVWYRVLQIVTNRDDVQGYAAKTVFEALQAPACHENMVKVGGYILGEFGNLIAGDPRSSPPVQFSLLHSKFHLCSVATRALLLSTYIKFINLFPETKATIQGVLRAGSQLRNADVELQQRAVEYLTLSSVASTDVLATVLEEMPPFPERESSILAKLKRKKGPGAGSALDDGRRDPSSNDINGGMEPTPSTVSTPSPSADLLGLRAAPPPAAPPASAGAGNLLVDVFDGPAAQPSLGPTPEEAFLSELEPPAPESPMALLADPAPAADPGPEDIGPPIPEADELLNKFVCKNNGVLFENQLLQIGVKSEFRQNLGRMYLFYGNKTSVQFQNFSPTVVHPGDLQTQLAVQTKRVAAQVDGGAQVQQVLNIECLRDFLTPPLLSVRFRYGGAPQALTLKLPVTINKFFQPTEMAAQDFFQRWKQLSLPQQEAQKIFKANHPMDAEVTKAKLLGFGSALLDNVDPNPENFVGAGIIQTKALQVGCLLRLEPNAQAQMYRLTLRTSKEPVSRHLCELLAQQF
UniProt O95347, whole entry, looked up: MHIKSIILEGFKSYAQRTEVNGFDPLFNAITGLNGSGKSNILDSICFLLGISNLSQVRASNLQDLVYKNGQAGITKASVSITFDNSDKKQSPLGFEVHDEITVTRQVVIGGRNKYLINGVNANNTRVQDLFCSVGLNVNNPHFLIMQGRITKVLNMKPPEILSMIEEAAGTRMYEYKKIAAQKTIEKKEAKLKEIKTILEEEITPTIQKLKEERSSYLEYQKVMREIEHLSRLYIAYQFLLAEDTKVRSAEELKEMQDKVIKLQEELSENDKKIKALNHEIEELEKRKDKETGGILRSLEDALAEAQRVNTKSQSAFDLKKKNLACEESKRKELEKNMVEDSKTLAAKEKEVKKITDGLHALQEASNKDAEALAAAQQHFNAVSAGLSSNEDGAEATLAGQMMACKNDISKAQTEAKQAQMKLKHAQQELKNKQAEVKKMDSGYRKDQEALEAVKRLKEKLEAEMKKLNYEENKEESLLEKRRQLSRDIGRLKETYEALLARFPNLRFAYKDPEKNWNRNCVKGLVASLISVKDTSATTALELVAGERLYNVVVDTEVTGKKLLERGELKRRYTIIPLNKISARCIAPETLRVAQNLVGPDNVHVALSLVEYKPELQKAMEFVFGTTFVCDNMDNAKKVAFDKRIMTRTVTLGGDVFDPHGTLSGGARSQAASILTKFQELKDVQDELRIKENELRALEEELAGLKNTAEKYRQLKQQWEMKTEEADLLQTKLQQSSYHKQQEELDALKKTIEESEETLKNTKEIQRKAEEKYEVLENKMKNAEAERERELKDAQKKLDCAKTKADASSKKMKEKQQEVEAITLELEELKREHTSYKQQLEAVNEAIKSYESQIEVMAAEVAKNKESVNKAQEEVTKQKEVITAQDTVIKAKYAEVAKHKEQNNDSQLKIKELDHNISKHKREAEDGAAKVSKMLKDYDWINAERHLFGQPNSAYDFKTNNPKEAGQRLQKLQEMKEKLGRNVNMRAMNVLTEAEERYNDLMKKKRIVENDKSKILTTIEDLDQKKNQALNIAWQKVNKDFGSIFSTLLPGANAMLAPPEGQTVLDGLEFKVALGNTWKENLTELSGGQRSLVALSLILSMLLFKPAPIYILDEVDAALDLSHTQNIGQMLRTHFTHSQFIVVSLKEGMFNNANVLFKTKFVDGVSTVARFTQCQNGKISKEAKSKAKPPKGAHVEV
UniProt O95197: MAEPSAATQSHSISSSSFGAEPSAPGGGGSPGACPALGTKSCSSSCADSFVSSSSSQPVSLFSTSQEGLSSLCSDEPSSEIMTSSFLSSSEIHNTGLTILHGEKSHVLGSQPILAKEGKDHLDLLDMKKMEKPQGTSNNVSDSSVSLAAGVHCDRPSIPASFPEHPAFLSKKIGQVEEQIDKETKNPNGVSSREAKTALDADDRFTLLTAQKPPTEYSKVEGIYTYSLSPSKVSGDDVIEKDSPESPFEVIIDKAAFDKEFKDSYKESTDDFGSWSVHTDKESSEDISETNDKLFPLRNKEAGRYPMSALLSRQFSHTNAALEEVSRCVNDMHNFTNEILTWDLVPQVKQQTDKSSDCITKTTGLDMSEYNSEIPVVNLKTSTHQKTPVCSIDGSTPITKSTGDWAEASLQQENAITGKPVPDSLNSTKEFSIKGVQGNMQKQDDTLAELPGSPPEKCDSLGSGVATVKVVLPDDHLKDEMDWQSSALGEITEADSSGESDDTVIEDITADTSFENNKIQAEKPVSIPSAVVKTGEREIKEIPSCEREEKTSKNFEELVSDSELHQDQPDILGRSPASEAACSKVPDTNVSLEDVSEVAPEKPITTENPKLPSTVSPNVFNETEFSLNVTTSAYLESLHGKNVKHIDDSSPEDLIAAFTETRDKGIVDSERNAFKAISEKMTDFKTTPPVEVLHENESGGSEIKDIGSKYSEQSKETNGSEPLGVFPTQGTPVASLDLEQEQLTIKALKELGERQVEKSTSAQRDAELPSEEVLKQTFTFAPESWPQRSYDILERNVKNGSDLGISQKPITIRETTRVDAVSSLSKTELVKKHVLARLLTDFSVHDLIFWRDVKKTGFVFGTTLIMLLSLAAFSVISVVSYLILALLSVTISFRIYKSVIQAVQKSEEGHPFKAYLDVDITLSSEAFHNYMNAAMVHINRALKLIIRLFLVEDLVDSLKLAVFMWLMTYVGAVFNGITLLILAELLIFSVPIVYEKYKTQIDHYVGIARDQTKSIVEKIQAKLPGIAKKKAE
UniProt P06132: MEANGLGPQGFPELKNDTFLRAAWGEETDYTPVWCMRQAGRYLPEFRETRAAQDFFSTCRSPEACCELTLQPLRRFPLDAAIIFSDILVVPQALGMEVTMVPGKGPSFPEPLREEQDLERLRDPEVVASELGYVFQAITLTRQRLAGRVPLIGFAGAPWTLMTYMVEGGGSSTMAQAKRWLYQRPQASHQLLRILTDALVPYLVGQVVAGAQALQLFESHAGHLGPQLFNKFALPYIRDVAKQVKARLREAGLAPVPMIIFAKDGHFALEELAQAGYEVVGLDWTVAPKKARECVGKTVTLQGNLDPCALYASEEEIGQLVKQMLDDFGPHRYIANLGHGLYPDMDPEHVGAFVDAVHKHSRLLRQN

Compound: COC(=O)/C=C/c1ccccc1 [methyl cinnamate]
Assay: log2 ratio of iodoacetamide-alkyne labeling of the cysteine site, DMSO over compound (competition); higher = stronger covalent engagement of the cysteine by the compound, active = 1 or more
Settings: 500 µM; treatment time 1 h; system: HEK293T cell lysate
Procedure, shortened: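 For each cysteine, the log2 competition ratio is mean control-channel reporter intensity over mean compound-channel reporter intensity. HEK293T lysate (2 mg/mL) was exposed to vehicle or electrophile (500 µM, 1 h, ambient temperature), labelled with iodoacetamide alkyne (1 h), clicked to sCIP-TMT reagents, digested overnight with trypsin at 37 °C, streptavidin-enriched and analysed by Orbitrap Eclipse LC-MS/MS with FAIMS and FragPipe. Cysteines quantified in only one of three replicates, each with duplicate channels, were excluded.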

log2 ratio of iodoacetamide-alkyne labeling, inactive:
UBE4B C1129 (UniProt O95155) 0.0171, KIF20A C270 (UniProt O95235) 0.203, GSR C107 (UniProt P00390) 0.0491, UniProt O95478_C154 0.162, UniProt O96017_C539 0.328, KRT1 C49 (UniProt P04264) 0.00375, PCNT C974 (UniProt O95613) -0.0561, HSPA4L C167 (UniProt O95757) 0.22, NPM1 C275 (UniProt P06748) 0.189, UniProt O96028_C1315 0.0383, LATS1 C885 (UniProt O95835) 0.0997, ATP1A1 C211 (UniProt P05023) 0.125, POLR1A C446 (UniProt O95602) -0.149, NPM1 C104 (UniProt P06748) 0.07, GPX1 C202 (UniProt P07203) 0.132, UniProt O94927_C35 -0.0362, WIZ C1429 (UniProt O95785) -0.0151, NR3C1 C367 (UniProt P04150) 0.348, ENO1 C119 (UniProt P06733) 0.0539, POLR1A C937 (UniProt O95602) -0.127, CAPN1 C115 (UniProt P07384) 0.486, MAP4K4 C883 (UniProt O95819) -0.0119, SVIL C26 (UniProt O95425) 0.237, GLS C518 (UniProt O94925) -0.00961, AP2A1 C492 (UniProt O95782) 0.0211, SMC2 C1174 (UniProt O95347) 0.0209, UniProt O95071_C2267 -0.0654, UniProt O95071_C739 -0.219, ENO1 C337 (UniProt P06733) 0.449, RTN3 C34 (UniProt O95197) 0.195, EPRS C1377 (UniProt P07814) 0.118, PRPF6 C698 (UniProt O94906) 0.0159, SLU7 C469 (UniProt O95391) 0.158, ALDOA C290 (UniProt P04075) 0.0926, UROD C308 (UniProt P06132) 0.124, ALDH2 C179 (UniProt P05091) 0.203
